Experimental data published in US7763708B2, “Methods and compositions for modulating C5-a-mediated inflammatory responses” (Institute for Protein Science Co., Ltd., priority 2004, dated 2010).
“And” between values parts separate entries of the source, which are not always exact repeats. Equal values may be shown once. “Also recorded” adds a separate entry of the source. Part of at least one peptide drawing is inferred or uncertain, most often the ends. Ends that are not written are not given here.

Columns and labels:
ICR mice = experiment: Lethal shock of mice induced by intravenous CAWS (Candida albicans water soluble extract); assay type: in vivo, mouse; details: dose and route not stated
Experimental: (§1) Within one exemplary embodiment illustrating construction of useful C5a-modulatory peptide analogs and mimetics from a direct C5a complement peptide (or reference C5a-modulatory peptide sequence), an acetylated derivative of Pep-A (A-Pep-A) was constructed and tested for use within the methods and compositions of the invention. A-Pep-A is a peptide with the same sequence as that of Pep-A with acetylated alanine at the amino-terminal amino acid. Effect of A-Pep-A was tested on the lethal shock of mice induced by intravenous administration of CAWS (Candida albicans water soluble extract). […] ICR mice were injected with 4 mg/kg of A-Pep-A intraperitonally (i.p.) or intravenously (i.v.) 10 min before i.v. challenge with […] 100 μg CAWS. […] Effect of A-Pep-A was also evaluated on the skin reaction of rats. As an indicator dye of vascular exudation, rats were i.v. injected with 0.5 ml of Evans Blue (8 mg/ml in saline) 30 min before intradermal (i.d.) injection of 5 μg 512 (anti-Crry monoclonal antibody) together with Pep-A, A-Pep-A of saline control).

[1] = tested on: Rat Lethal Shock Model (C5a-mediated); experiment: Rat lethal shock induced by anti-Crry antibody following LPS priming; assay type: in vivo
Experimental: Administration of anti-rat Crry mAb (5I2) (Takizawa et al., J. Immunol. 152:3032, 1994) induces lethal shock in rats primed with a trace amount of lipopolysaccharide (LPS) (Matsuo et al., J. Exp. Med. 180:1619, 1994; Mizuno et al., J. Immunol. 162:5477, 1999). With this model, all rats sensitized with 0.05 mg/kg of LPS died within 30 min of injection of mAb 512. Male Wistar rats weighing about 250 g were purchased from Chubu Kagaku Shizai (Nagoya, Japan) and were allowed free access to food and water. Each rat was injected with 0.05 mg/kg of LPS, prepared from a phenol extraction of Salmonella typhosa (Sigma Chemical Co., St. Louis, Mo.) in 250 μl saline. Then, 0.75 mg/kg of 5I2 was administered 20 h later. Ten minutes before the injection of 5I2, saline or C-peptides in saline were injected. All injections were intravenously administered through the tail vein. Animal experiments were carried out according to Nagoya City University Guideline for the Care and Use of Experimental Animals and approved by the Nagoya City University Graduate School of Medical Sciences Animal Care Committee.
Administration of 0.75 mg/kg anti-rat Crry monoclonal antibody (Takizawa et al., J. Immunol. 152:3032, 1994) induces rapid lethal shock in rats primed with 0.05 mg/kg of LPS 20 h earlier (Matsuo et al., J. Exp. Med. 180:1619, 1994; Mizuno et al., J. Immunol. 162:5477, 1999). […] In order to investigate the inhibitory effect of the C-peptides in this model, we injected rats with saline (for the control) or C-peptides in 250 μl of saline 10 min before the 5I2 injection. All rats injected with saline died within 30 min (Table 1). However, all rats injected with 4 mg/kg of Pep-A survived. […] Some of the surviving rats stopped breathing briefly in the first 1 or 2 min after injection of 5I2, but were soon breathing again and about 20-40 min later began moving.

skin reaction of rats = experiment: Skin reaction of rats: Evans Blue exudation after intradermal 5I2 (anti-Crry mAb); assay type: in vivo, rat; details: summary of Table 3
Experimental: as §1, with “As an indicator dye of vascular exudation, rats were i.v. injected with 0.5 ml of Evans Blue (8 mg/ml in saline) 30 min before intradermal (i.d.) injection of 5 μg 512 (anti-Crry monoclonal antibody) together with Pep-A, A-Pep-A of saline control).” left out

[2] = 0.5 mg/kg i.v. 10 min before anti-Crry mAb
[3] = 1 mg/kg i.v. 10 min before anti-Crry mAb
[4] = 2 mg/kg i.v. 10 min before anti-Crry mAb
[5] = 4 mg/kg i.v. 10 min before anti-Crry mAb

ASGAPAPGPAGPLRPMF [Pep-A, ASGAPAPGPAGPLRPMF]
Effect on CAWS lethal shock (ICR mice): did not show any effect; also recorded: not effective | Survival rate (%) [1, 2]: 75% | Surviving/total number of rats [1, 2]: 3/4 | Survival rate (%) [1, 3]: 33% | Surviving/total number of rats [1, 3]: 1/3 | Survival rate (%) [1, 4]: 67% | Surviving/total number of rats [1, 4]: 2/3 | Protection from lethal shock ([1]; 4 mg/kg given 30 min before anti-Crry mAb): not effective | Survival rate (%) [1, 5]: 100% | Surviving/total number of rats [1, 5]: survived and 4/4** | Inhibition of dye exudation / skin inflammation (skin reaction of rats): not effective
